Earlier results, collected in patent EP0527762B1, “INHIBITION OF ALLOGRAFT AND […] REJECTION” (priority 1990, dated 1991).
At least one structure is not confirmed: it was looked up by name or label, or the drawing left a doubt.

Test system: rabbit kidney xenografts
Details: rabbit kidney into cats, discordant

COC(=O)C1=C(C)NC(C)=C(C(=O)OC)C1c1ccccc1[N+](=O)[O-] [nifedipine]
prevention of hyperacute rejection: not prevented
